Test results taken from ChEMBL document CHEMBL2406983, “Synthesis and the 5-HT6 receptor antagonistic effect of 3-arylsulfonylamino-5,6-dihydro-6-substituted pyrazolo[3,4]pyridinones for neuropathic pain treatment” (Bioorg Med Chem Lett, 2013).

By UniProt entry, the sequences of proteins in these tests, tags left out.
UniProt P50406, whole entry: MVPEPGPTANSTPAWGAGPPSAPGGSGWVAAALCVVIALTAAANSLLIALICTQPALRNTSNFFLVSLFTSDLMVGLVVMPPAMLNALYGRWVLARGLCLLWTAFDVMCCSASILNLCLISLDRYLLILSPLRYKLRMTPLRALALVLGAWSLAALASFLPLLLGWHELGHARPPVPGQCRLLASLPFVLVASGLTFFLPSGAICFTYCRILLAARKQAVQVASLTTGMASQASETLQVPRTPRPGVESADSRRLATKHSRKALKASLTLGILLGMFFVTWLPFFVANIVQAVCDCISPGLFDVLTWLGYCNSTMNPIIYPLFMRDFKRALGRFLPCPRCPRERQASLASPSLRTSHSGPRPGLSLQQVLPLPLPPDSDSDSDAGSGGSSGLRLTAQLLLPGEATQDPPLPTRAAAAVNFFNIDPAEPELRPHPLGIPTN

Target: 5-hydroxytryptamine receptor 6 (Homo sapiens, UniProt P50406)
Assay: Antagonist activity at human 5-HT6 receptor expressed in human HeLa cells assessed as inhibition of 5-HT-induced cAMP accumulation pretreated for 10 mins before 5-HT addition measured after 30 mins
Assay type: functional, cell-based
Procedure, shortened: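 HeLa cells stably expressing human 5-HT6 receptor, grown at 37 °C in 5% CO2/95% air, suspended in PBS with 2 mM IBMX. Compound pretreatment 10 min, then 100 nM 5-HT stimulation for 30 min. cAMP measured by HTRF (d2-labeled cAMP plus cryptate anti-cAMP antibody, 1 h at room temperature), excitation 314 nm, emission 668 and 620 nm. Single-point inhibition read at […].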

IC50: 0.019 µM
SMILES: COc1ccc(NS(=O)(=O)c2ccc(I)cc2)cc1N1CCN(C)CC1
